Measurements as given in PubChem BioAssay AID662 (National Center for Advancing Translational Sciences (NCATS), 2007).
Some of the results follow. Shown are side measurements of this screen, not its main read-out; they come without a call. The list favours compounds with an active or inconclusive main result. Potencies come from curve fits of mixed quality, noted in brackets.

Test: Cell signaling CRE-BLA (Fsk stim)
Conditions: CHO CRE-bla reporter (cAMP response element driving beta-lactamase), forskolin EC10, beta-lactamase ratio; measured here: 460 nm blue channel
Method in brief: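 Modulation of forskolin signalling: compounds in titration series added with EC10 NKH 477 to CHO cells carrying a CRE-driven beta-lactamase reporter, 3 h, 37C. CCF4 FRET ratio (460/530 nm, ex 405 nm) gives %activity and AC50.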

Row | SMILES | AC50
1 | Cc1nc2cnc(N(C)C)nc2n(-c2ccccc2)c1=O | 15.8 µM [rising, partial curve]
2 | Cc1ccc2c(c1)-c1c(cnn1CC(=O)Nc1ccccc1N1CCN(C)CC1)CO2 | 10 µM [rising, partial curve]
3 | CC(NC(=O)c1cc2ccccc2o1)C(=O)O (centres undefined) | 0.316 µM [falling, partial curve]
4 | CCOC(=O)c1cc(C(=O)OCC)c2cc(Br)ccc2n1 | 15.8 µM [rising, single point]
5 | Cc1ccc2c(CSc3nnc(C4CC4)n3N)cc(=O)oc2c1C | 10 µM [rising, partial curve]
6 | CCN(CC)c1ccc2cc(-c3nc4ccccc4n3C)c(=O)oc2c1 | 1.58 µM [rising, partial curve]
7 | O=c1c2ccccc2nc(SCc2nnc(-c3ccccc3Br)o2)n1-c1ccccc1 | 2.51 µM [rising, partial curve]
8 | COc1ncc2nc(-c3cn(C)c4ccccc34)c(=O)n(-c3ccccc3)c2n1 | 12.6 µM [rising, partial curve]
9 | CCC1C(C#N)=C(SC)NC2=C1C(=O)CC(C)(C)C2 (centres undefined) | 1 µM [falling, partial curve]
10 | COc1ccc(OC)c(NC(=O)c2cc(S(=O)(=O)NCc3ccco3)ccc2F)c1 | 10 µM [rising, partial curve]
11 | Cn1c(=O)c2c(-c3ccccc3)n(CCCN3CCOCC3)cc2n(C)c1=O | 12.6 µM [rising, single point]
12 | Clc1ccc(CCNc2ncnc3nc[nH]c23)cc1 | 10 µM [rising, partial curve]
13 | COc1ccccc1-c1cn[nH]c(=S)n1 | 15.8 µM [rising, single point]
14 | c1ccc(-c2nnc3sc(-c4csc5c4CCCC5)nn23)cc1 | 10 µM [rising, partial curve]
15 | COc1ccc(Cc2noc(-c3ccc(OC)c(OC)c3)n2)cc1OC | 12.6 µM [rising, partial curve]
16 | CN1Cc2sc(N)c(C#N)c2CC1(C)C | 10 µM [rising, partial curve]
17 | CN(Cc1ccccc1)c1oc(-c2ccco2)nc1C#N | 10 µM [rising, partial curve]
18 | COc1ccc(-c2cc(C(F)(F)F)nc(S(=O)(=O)CCC(=O)N3CCOCC3)n2)cc1 | 7.94 µM [falling, partial curve]
19 | N#CCCn1cc(/C=N/O)c(-c2ccc(-c3ccccc3)cc2)n1 | 12.6 µM [rising, partial curve]
20 | COc1cc(CO)cc(Br)c1OCc1cccnc1 | 12.6 µM [rising, partial curve]
21 | CCc1nc(C)cn1S(=O)(=O)c1cc(C)c(OC)cc1C | 12.6 µM [rising, partial curve]
22 | CN1CCN(CCC(=O)Nc2ccc(OCc3ccccc3)cc2)CC1 | 3.98 µM [falling, partial curve]
23 | CCN(CC)c1nc2ccccc2nc1C(C#N)C(=O)NCCCOC (centres undefined) | 7.94 µM [rising, partial curve]

Row | SMILES | AC50
24 | COc1ccc(CNC(=O)C2CCN(C(=O)[C@@H](CC(C)C)NC(=O)OC(C)(C)C)CC2)cc1 | 25.1 µM [rising, single point]
25 | Cc1nc2c(C(=O)NCc3ccco3)cnn2c(C)c1Cc1ccc(F)cc1Cl | 3.16 µM [rising, full curve]
26 | COCCN1C(=O)c2oc3ccccc3c(=O)c2C1c1ccc(O)c(OC)c1 (centres undefined) | 10 µM [rising, single point]
27 | COC(=O)[C@@]1(Cc2ccc(F)cc2)[C@H]2c3cc(C(=O)N(C)C)n(Cc4ccc(OC)c(OC)c4)c3C[C@H]2CN1C(=O)c1ccccc1 | 20 µM [rising, partial curve]
28 | Cc1ccc(NC(=O)CNc2cccc(C)c2C)c(C)c1 | 0.501 µM [falling, partial curve]
29 | Cc1ccc(-n2ncc3c(=O)[nH]c(SCC(=O)N4CCCc5ccccc54)nc32)cc1 | 2.51 µM [rising, partial curve]
30 | N#C/C(=C\c1ccc(O)c(O)c1)C(=O)Nc1ccccc1 | 25.1 µM [rising, single point]
31 | Cc1ccc(C)c(CSc2nnc(-c3cccnc3)o2)c1 | 12.6 µM [rising, single point]
32 | COc1ccc(CCNc2nnc(Sc3nnnn3-c3ccccc3)s2)cc1OC | 7.94 µM [rising, partial curve]
33 | COc1ccccc1NC(=O)Cn1cnc2c(oc3ccccc32)c1=O | 12.6 µM [rising, partial curve]
34 | CCC1CCCCN1S(=O)(=O)c1ccc(C(=O)Nc2nnc(-c3cccs3)o2)cc1 (centres undefined) | 25.1 µM [falling, single point]
35 | Cc1ccc(Cl)cc1N1CCN(C(=O)c2cn(C)c(=O)c3c2c2ccccc2n3C)CC1 | 0.316 µM [falling, full curve]
36 | CCCCCn1c(CN2CCN(C(=O)OCC)CC2)nc2c1c(=O)[nH]c(=O)n2C | 0.126 µM [rising, full curve, poor fit]
37 | COC(=O)c1ccccc1NC(=O)COc1ccc(S(=O)(=O)N2CCCC2)cc1C | 0.398 µM [rising, partial curve]
38 | O=C1NCCCC1C(=O)N1CCN(C(c2ccccc2)c2ccccc2)CC1 (centres undefined) | 0.631 µM [falling, full curve]
39 | CCC(CC)C(=O)NCCNC(=O)C(CC)CC | 2 µM [rising, full curve]
40 | CCCc1nc(SCC(=O)Nc2cc(Cl)ccc2OC)c2c(=O)n(C)c(=O)n(C)c2n1 | 3.16 µM [rising, single point]
41 | Brc1c(CSc2nc3ccccc3o2)nc2ncccn12 | 10 µM [rising, partial curve]
42 | CCc1nnc(NC(=O)CSc2nc3ccccc3s2)s1 | 20 µM [falling, partial curve]
43 | CCCC(c1nnnn1Cc1ccc(OC)cc1)N1CCC(C(N)=O)CC1 (centres undefined) | 2.51 µM [falling, partial curve]
44 | COCC(=O)NC(C)c1nc2ccccc2[nH]1 (centres undefined) | 0.0501 µM [falling, full curve, poor fit]
45 | CCOC(=O)c1c2n(c3ccc(O)cc13)CCC2 | 7.94 µM [rising, partial curve]
46 | COc1ccc(-c2nn(C)c(=O)c3ccccc23)cc1NC(=O)Cn1nc(C)c2ccccc2c1=O | 7.94 µM [rising, partial curve]

Arranged by molar mass (largest number first): some entries from above.
Row | SMILES | AC50
27 | COC(=O)[C@@]1(Cc2ccc(F)cc2)[C@H]2c3cc(C(=O)N(C)C)n(Cc4ccc(OC)c(OC)c4)c3C[C@H]2CN1C(=O)c1ccccc1 | 20 µM [rising, partial curve]
46 | COc1ccc(-c2nn(C)c(=O)c3ccccc23)cc1NC(=O)Cn1nc(C)c2ccccc2c1=O | 7.94 µM [rising, partial curve]
42 | CCc1nnc(NC(=O)CSc2nc3ccccc3s2)s1 | 20 µM [falling, partial curve]

More results:

Row | SMILES | AC50
47 | C=CCN=C(NC#N)SCc1ccccc1Cl | 12.6 µM [falling, single point]
48 | Cc1cc(NC(=O)CN2CCN(Cc3ccccc3)CC2)nc2c1c(=O)oc1ccccc12 | 12.6 µM [rising, single point]
49 | COc1ccc(CNc2ncnc3ccc(-c4ccc(C(=O)N(C)C)cc4)cc23)c(OC)c1 | 12.6 µM [rising, partial curve]
50 | CCOC(=O)c1cc(C)sc1N1C(=O)C2C3C=CC(C3)C2C1=O (centres undefined) | 15.8 µM [rising, single point]
51 | CN(C)c1ncc2nc(-c3ccccc3)c(=O)n(C[C@H]3CCCO3)c2n1 | 5.01 µM [rising, partial curve]
52 | NS(=O)(=O)c1cc(C(=O)O)c(Cl)c([N+](=O)[O-])c1Cl | 2 µM [falling, single point]
53 | Cc1nc(N2CCOCC2)c2cc(-c3ccccc3)sc2n1 | 2.51 µM [falling, single point]
54 | COc1ccc(OC)c(C(C)NC(C)=O)c1 (centres undefined) | 0.01 µM [falling, partial curve, poor fit]
55 | COc1ccc(S(=O)(=O)Nc2ccccc2C(=O)NC(C)C)cc1OC | 0.794 µM [falling, full curve, poor fit]
56 | CCCc1cc(-n2ccnc2)n2c(nc3ccccc32)c1C#N | 5.01 µM [falling, partial curve]
57 | COc1ccc(C(=O)N(Cc2nc(-c3ccc(C)cc3)no2)C2CCCCC2)cc1OC | 25.1 µM [rising, single point]
58 | Cc1nn2c3ccccc3nc2n(Cc2ccccc2)c1=O | 3.98 µM [rising, single point]
59 | O=C(NCCN1CCOCC1)c1csc2c1CCCCC2 | 0.0316 µM [falling, full curve, poor fit]
60 | O=C(O)CCCC(=O)Nc1ccc(C(=O)N2CCCCC2)c(Cl)c1 | 0.00316 µM [falling, full curve, poor fit]
61 | CCCCCSc1nnc2c(n1)OC(c1cccn1C)N(C(C)=O)c1ccccc1-2 (centres undefined) | 1.26 µM [falling, partial curve]
62 | Cc1ccccc1-c1ccc2ncnc(-n3ccnc3)c2c1 | 12.6 µM [falling, single point]
63 | c1ccc(-c2cccc(-c3ccccn3)n2)nc1 | 15.8 µM [rising, single point]
64 | Cc1cccn2cc(CNC(=O)CC3CCCC3)nc12 | 5.01 µM [falling, single point]
65 | Nc1c(C(=O)OCC2CCCO2)c2nc3ccccc3nc2n1C1CCCC1 (centres undefined) | 3.16 µM [rising, full curve]
66 | Cn1c(=O)c2nnn(/N=C(\c3ccccc3)C3CC3)c2n(C)c1=O | 25.1 µM [rising, single point]
67 | O=C(CS(=O)(=O)Cc1ccccc1)N1CCc2ccccc21 | 5.01 µM [falling, single point]
68 | O=c1c(-c2cc(F)cc(F)c2)nc2cnc(N3CCOCC3)nc2n1Cc1cccs1 | 0.631 µM [rising, full curve]
69 | CN(CCCNC(=O)C1CCN(S(=O)(=O)N2CCC3(CC2)OCCO3)CC1)Cc1ccccc1 | 5.01 µM [falling, single point]

Of the compounds above, 4 contain bromine:
Row | SMILES | AC50
4 | CCOC(=O)c1cc(C(=O)OCC)c2cc(Br)ccc2n1 | 15.8 µM [rising, single point]
7 | O=c1c2ccccc2nc(SCc2nnc(-c3ccccc3Br)o2)n1-c1ccccc1 | 2.51 µM [rising, partial curve]
20 | COc1cc(CO)cc(Br)c1OCc1cccnc1 | 12.6 µM [rising, partial curve]
41 | Brc1c(CSc2nc3ccccc3o2)nc2ncccn12 | 10 µM [rising, partial curve]
